# Source: the supplement of paper PMC8728848
# Some of the results follow.
# B1: GroEL (Clostridium difficile), Q18CT5 (protein)
# chain: MAKEIKFSEETRRALEAGVNKLADTVKVTLGPKGRNVILDKKFGSPLITNDGVTIAKEIELEDRFENMGAQLVKEVATKTNDVAGDGTTTATVLAQAIIREGLKNVTAGANPILLRKGIQKAVTVAVEELKNQSRIVETQEAISQVASISAGDEEVGKLIAEAMEIVGKDGVITVEESQTMNTELDAVEGMQFDRGFVSAYMVTDVDKMEAVLNDPYILITDKKISNIQELLPVLEQIVQQGKKLLIIAEDVEGEALSTLVVNKLRGTFDVVAVKAPGFGDRRKEMLQDIAILTGAQVISEELGYDLKEADLSMLGRASSVKVTKESTTIVDGSGDKKAIEDRVTQIKHQVEQTTSDFDREKLMERLAKLAGGVAVVKVGAATEVELKERKLRIEDALNATRAAVEEGIVAGGGTAFVSVIPAIGTLIESLEGEVKLGAQIVKKALEEPLRQIAINAGLEGAVIVQNVVNSEAETGFDALNEKYVNMIEAGIVDPTKVSRSALQNAASIASTFLTTEAAVADLPEKEDAGMPGMGGGMPGMM
# Tests used:
# Experiment in all cases: glycan array binding signal (z-score within array); higher = stronger binding
# Conditions in all cases: glycan notation: IUPAC condensed, linker removed
# [1] = molecular target: Fuc(a1-2)[Gal(a1-3)]Gal(b1-4)GlcNAc(b1-2)Man(a1-3)[Fuc(a1-2)[Gal(a1-3)]Gal(b1-4)GlcNAc(b1-2)Man(a1-6)]Man(b1-4)GlcNAc(b1-4)[Fuc(a1-6)]GlcNAc
# How it was run: (§1)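 Glycan array binding is given as a within-array Z-score, which can be read as non-binding when negative. The arrays, 3228 of them, came from the Consortium for Functional Glycomics database and were retained only where the protein sequence was available. Z-scores were averaged across arrays of the same protein sequence at different concentrations or buffers and across linkers.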
# [2] = molecular target: Fuc(a1-2)[Gal(a1-3)]Gal(b1-4)GlcNAc(b1-3)GalNAc
# How it was run: as §1
# [3] = molecular target: Fuc(a1-2)[Gal(a1-3)]Gal(b1-4)GlcNAc(b1-6)GalNAc
# How it was run: as §1
# [4] = molecular target: Fuc(a1-2)[Gal(a1-3)]Gal(b1-4)[Fuc(a1-3)]Glc
# How it was run: as §1
# [5] = molecular target: Fuc(a1-2)[Gal(a1-3)]Gal(b1-4)[Fuc(a1-3)]GlcNAc
# How it was run: as §1
# [6] = molecular target: Fuc(a1-2)[Gal(a1-3)]Gal(b1-4)[Fuc(a1-3)]GlcNAc(b1-3)GalNAc
# How it was run: as §1
# [7] = molecular target: Fuc(a1-2)[Gal(a1-4)]Gal(b1-4)GlcNAc
# How it was run: as §1
# [8] = molecular target: Fuc(a1-2)[GalNAc(a1-3)]Gal
# How it was run: as §1
# [9] = molecular target: Fuc(a1-2)[GalNAc(a1-3)]Gal(b1-3)GalNAc(a1-3)[Fuc(a1-2)]Gal(b1-4)GlcNAc
# How it was run: as §1
# [10] = molecular target: Fuc(a1-2)[GalNAc(a1-3)]Gal(b1-3)GalNAc(b1-3)Gal(a1-4)Gal(b1-4)Glc
# How it was run: as §1
# [11] = molecular target: Fuc(a1-2)[GalNAc(a1-3)]Gal(b1-3)GlcNAc
# How it was run: as §1
# [12] = molecular target: Fuc(a1-2)[GalNAc(a1-3)]Gal(b1-3)GlcNAc(b1-2)Man(a1-3)[Fuc(a1-2)[GalNAc(a1-3)]Gal(b1-3)GlcNAc(b1-2)Man(a1-6)]Man(b1-4)GlcNAc(b1-4)GlcNAc
# How it was run: as §1
# [13] = molecular target: Fuc(a1-2)[GalNAc(a1-3)]Gal(b1-3)GlcNAc(b1-2)Man(a1-3)[Fuc(a1-2)[GalNAc(a1-3)]Gal(b1-3)GlcNAc(b1-2)Man(a1-6)]Man(b1-4)GlcNAc(b1-4)[Fuc(a1-6)]GlcNAc
# How it was run: as §1
# [14] = molecular target: Fuc(a1-2)[GalNAc(a1-3)]Gal(b1-3)GlcNAc(b1-3)GalNAc
# How it was run: as §1
# [15] = molecular target: Fuc(a1-2)[GalNAc(a1-3)]Gal(b1-3)GlcNAc(b1-6)GalNAc
# How it was run: as §1
# [16] = molecular target: Fuc(a1-2)[GalNAc(a1-3)]Gal(b1-4)Glc
# How it was run: as §1
# [17] = molecular target: Fuc(a1-2)[GalNAc(a1-3)]Gal(b1-4)GlcNAc
# How it was run: as §1
# [18] = molecular target: Fuc(a1-2)[GalNAc(a1-3)]Gal(b1-4)GlcNAc(b1-2)Man
# How it was run: as §1
# [19] = molecular target: Fuc(a1-2)[GalNAc(a1-3)]Gal(b1-4)GlcNAc(b1-2)Man(a1-3)[Fuc(a1-2)[GalNAc(a1-3)]Gal(b1-4)GlcNAc(b1-2)Man(a1-6)]Man(b1-4)GlcNAc(b1-4)GlcNAc
# How it was run: as §1
# [20] = molecular target: Fuc(a1-2)[GalNAc(a1-3)]Gal(b1-4)GlcNAc(b1-2)Man(a1-3)[Fuc(a1-2)[GalNAc(a1-3)]Gal(b1-4)GlcNAc(b1-2)Man(a1-6)]Man(b1-4)GlcNAc(b1-4)[Fuc(a1-6)]GlcNAc
# How it was run: as §1
# [21] = molecular target: Fuc(a1-2)[GalNAc(a1-3)]Gal(b1-4)GlcNAc(b1-3)Gal(b1-4)GlcNAc
# How it was run: as §1
# [22] = molecular target: Fuc(a1-2)[GalNAc(a1-3)]Gal(b1-4)GlcNAc(b1-3)Gal(b1-4)GlcNAc(b1-3)Gal(b1-4)GlcNAc
# How it was run: as §1
# [23] = molecular target: Fuc(a1-2)[GalNAc(a1-3)]Gal(b1-4)GlcNAc(b1-3)GalNAc
# How it was run: as §1
# [24] = molecular target: Fuc(a1-2)[GalNAc(a1-3)]Gal(b1-4)GlcNAc(b1-3)[Fuc(a1-2)[GalNAc(a1-3)]Gal(b1-4)GlcNAc(b1-6)]GalNAc
# How it was run: as §1
# [25] = molecular target: Fuc(a1-2)[GalNAc(a1-3)]Gal(b1-4)GlcNAc(b1-6)GalNAc
# How it was run: as §1
# [26] = molecular target: Fuc(a1-2)[GalNAc(a1-3)]Gal(b1-4)[Fuc(a1-3)]GlcNAc
# How it was run: as §1
# [27] = molecular target: Fuc(a1-2)[GalNAc(a1-3)]Gal(b1-4)[Fuc(a1-3)]GlcNAc(b1-3)GalNAc
# How it was run: as §1
# [28] = molecular target: Fuc(a1-2)[GalNAc(a1-4)]Gal(b1-4)GlcNAc
# How it was run: as §1
# [29] = molecular target: Fuc(a1-2)[GalNAc(b1-3)]Gal
# How it was run: as §1
# Fuc(a1-3)GlcNAc = molecular target: Fuc(a1-3)GlcNAc
# How it was run: as §1
binder,measurement,setting,value
B1,glycan array binding signal (z-score),[1],1.21
same,glycan array binding signal (z-score),[2],-1.04
same,glycan array binding signal (z-score),[3],-0.714
same,glycan array binding signal (z-score),[4],1.5
same,glycan array binding signal (z-score),[5],0.041
same,glycan array binding signal (z-score),[6],-0.138
same,glycan array binding signal (z-score),[7],-0.022
same,glycan array binding signal (z-score),[8],-0.259
same,glycan array binding signal (z-score),[9],-0.987
same,glycan array binding signal (z-score),[10],-0.088
same,glycan array binding signal (z-score),[11],-0.462
same,glycan array binding signal (z-score),[12],-0.336
same,glycan array binding signal (z-score),[13],0.141
same,glycan array binding signal (z-score),[14],1.81
same,glycan array binding signal (z-score),[15],-0.924
same,glycan array binding signal (z-score),[16],0.487
same,glycan array binding signal (z-score),[17],1.44
same,glycan array binding signal (z-score),[18],-0.069
same,glycan array binding signal (z-score),[19],-0.978
same,glycan array binding signal (z-score),[20],-0.638
same,glycan array binding signal (z-score),[21],-0.401
same,glycan array binding signal (z-score),[22],0.136
same,glycan array binding signal (z-score),[23],0.923
same,glycan array binding signal (z-score),[24],-1.51
same,glycan array binding signal (z-score),[25],-1.27
same,glycan array binding signal (z-score),[26],-0.924
same,glycan array binding signal (z-score),[27],-0.583
same,glycan array binding signal (z-score),[28],-0.396
same,glycan array binding signal (z-score),[29],-0.641
same,glycan array binding signal (z-score),Fuc(a1-3)GlcNAc,0.107
